Consider one molecule from patent US20200165319A1.

Results are given in words; binding and its absence hold for the method and conditions named. Some entries that bind do so weakly or less than the wild type.

For this assay, the target named is synthetic polypeptide … based on the human type III collagen Pro488 to Gly510 segment contained in TE16C (human). Nature of the assay: X-ray crystal structure (self-association, homotrimer).

Turning to GFRGPAGPNGIPGEKGPAGERG, the binding result is listed as “binds”.
